Reference: PubChem BioAssay AID1508597 (Cure First, 2020)
Shown is a random part of the about 2,100 reagents, in one setting of the screen. 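Calls flag viability under 80% in either arm, not effects specific to rucaparib; the reference for percent is not stated.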 The numbers tell different reagents against one gene apart. Some reagents were tested in more than one well and are listed for each. Not given: the 100% reference.

Test: 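Knock-downs altering ovarian cancer cell survival with or without PARP inhibitor rucaparib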 (primary screen)
Cells: human ovarian carcinoma lines grown from tumours: OCI-P5x (papillary serous) and OCI-C5x (clear cell)
Knock-down reagent: siRNA pool against human genes, 1.25 pmol siRNA per well
Time to read-out: 72 h or 96 h, depending on the cell culture
Challenge: rucaparib 20 µM (about IC30) or vehicle, present until read-out
Rucaparib or vehicle: Vehicle
Cell line: OCI-C5x (clear cell)
Detection: 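ATP luminescence measured at 72 or 96 h according to the culture, then normalised and expressed as percent viability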
Direction: viability, normalised: higher = more viable cells remaining
Call rule: 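Active when normalised viability falls below 80 percent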
Calls: active = viability under 80%; inactive = viability 80% or more

The opening 5 entries, to show the layout:
gene knocked down | pool no. | technical replicate | viability, normalised (%) | activity call
NIPBL | 1 | 1 | 49.3 | active
NIPBL | 1 | 2 | 43.1 | active
NIPBL | 1 | 3 | 37.8 | active
RAD51D | 1 | 1 | 61.3 | active
RAD51D | 1 | 2 | 60.4 | active

The list itself, from the start:
gene knocked down | pool no. | technical replicate | viability, normalised (%) | activity call
NIPBL | 1 | 1 | 49.3 | active
NIPBL | 1 | 2 | 43.1 | active
NIPBL | 1 | 3 | 37.8 | active
RAD51D | 1 | 1 | 61.3 | active
RAD51D | 1 | 2 | 60.4 | active
RAD51D | 1 | 3 | 56.1 | active
RAD51D | 2 | 1 | 60.9 | active
RAD51D | 2 | 2 | 46.4 | active
RAD51D | 2 | 3 | 56.8 | active
MED18 | 1 | 1 | 50.9 | active
MED18 | 1 | 2 | 36.3 | active
MED18 | 1 | 3 | 41.5 | active
PARP1 | 1 | 1 | 48 | active
PARP1 | 1 | 1 | 42.8 | active
PARP1 | 1 | 2 | 53.2 | active
PARP1 | 1 | 2 | 41.6 | active
PARP1 | 1 | 3 | 55.6 | active
PARP1 | 1 | 3 | 54.9 | active
APC | 1 | 1 | 40 | active
APC | 1 | 1 | 38.1 | active
APC | 1 | 2 | 49.5 | active
APC | 1 | 2 | 36.8 | active
APC | 1 | 3 | 33.9 | active
APC | 1 | 3 | 46.5 | active
PINK1 | 1 | 1 | 67.9 | active
PINK1 | 1 | 2 | 65.5 | active
PINK1 | 1 | 3 | 63.9 | active
GLRA2 | 1 | 1 | 29.1 | active
GLRA2 | 1 | 2 | 41.5 | active
GLRA2 | 1 | 3 | 39.1 | active
HDAC9 | 1 | 1 | 47.5 | active
HDAC9 | 1 | 2 | 43.7 | active
HDAC9 | 1 | 3 | 57.6 | active
UTY | 1 | 1 | 29.6 | active
UTY | 1 | 2 | 40.5 | active
UTY | 1 | 3 | 37.5 | active
PIK3C2B | 1 | 1 | 82.9 | inactive
PIK3C2B | 1 | 2 | 77.7 | active
PIK3C2B | 1 | 3 | 63 | active
CFAP46 | 1 | 1 | 58.1 | active
CFAP46 | 1 | 2 | 73.8 | active
CFAP46 | 1 | 3 | 63.7 | active
TGFBR1 | 1 | 1 | 91.3 | inactive
TGFBR1 | 1 | 2 | 78.6 | active
TGFBR1 | 1 | 3 | 59.3 | active
BRD2 | 1 | 1 | 43.4 | active
BRD2 | 1 | 1 | 22.9 | active
BRD2 | 1 | 2 | 26.8 | active
BRD2 | 1 | 2 | 59.7 | active
BRD2 | 1 | 3 | 39.8 | active
BRD2 | 1 | 3 | 32.6 | active
SMARCB1 | 1 | 1 | 49.5 | active
SMARCB1 | 1 | 2 | 42.5 | active
SMARCB1 | 1 | 3 | 56.7 | active
DAPK1 | 1 | 1 | 55.7 | active
DAPK1 | 1 | 2 | 65.1 | active
DAPK1 | 1 | 3 | 63.2 | active
